The chains behind the UniProt entries cited, without tags or fusion partners. Where a name states a change or a piece, a line headed by the entry shows the natural chain unless it says otherwise. Residues count along the entry.
UniProt Q9H4A3: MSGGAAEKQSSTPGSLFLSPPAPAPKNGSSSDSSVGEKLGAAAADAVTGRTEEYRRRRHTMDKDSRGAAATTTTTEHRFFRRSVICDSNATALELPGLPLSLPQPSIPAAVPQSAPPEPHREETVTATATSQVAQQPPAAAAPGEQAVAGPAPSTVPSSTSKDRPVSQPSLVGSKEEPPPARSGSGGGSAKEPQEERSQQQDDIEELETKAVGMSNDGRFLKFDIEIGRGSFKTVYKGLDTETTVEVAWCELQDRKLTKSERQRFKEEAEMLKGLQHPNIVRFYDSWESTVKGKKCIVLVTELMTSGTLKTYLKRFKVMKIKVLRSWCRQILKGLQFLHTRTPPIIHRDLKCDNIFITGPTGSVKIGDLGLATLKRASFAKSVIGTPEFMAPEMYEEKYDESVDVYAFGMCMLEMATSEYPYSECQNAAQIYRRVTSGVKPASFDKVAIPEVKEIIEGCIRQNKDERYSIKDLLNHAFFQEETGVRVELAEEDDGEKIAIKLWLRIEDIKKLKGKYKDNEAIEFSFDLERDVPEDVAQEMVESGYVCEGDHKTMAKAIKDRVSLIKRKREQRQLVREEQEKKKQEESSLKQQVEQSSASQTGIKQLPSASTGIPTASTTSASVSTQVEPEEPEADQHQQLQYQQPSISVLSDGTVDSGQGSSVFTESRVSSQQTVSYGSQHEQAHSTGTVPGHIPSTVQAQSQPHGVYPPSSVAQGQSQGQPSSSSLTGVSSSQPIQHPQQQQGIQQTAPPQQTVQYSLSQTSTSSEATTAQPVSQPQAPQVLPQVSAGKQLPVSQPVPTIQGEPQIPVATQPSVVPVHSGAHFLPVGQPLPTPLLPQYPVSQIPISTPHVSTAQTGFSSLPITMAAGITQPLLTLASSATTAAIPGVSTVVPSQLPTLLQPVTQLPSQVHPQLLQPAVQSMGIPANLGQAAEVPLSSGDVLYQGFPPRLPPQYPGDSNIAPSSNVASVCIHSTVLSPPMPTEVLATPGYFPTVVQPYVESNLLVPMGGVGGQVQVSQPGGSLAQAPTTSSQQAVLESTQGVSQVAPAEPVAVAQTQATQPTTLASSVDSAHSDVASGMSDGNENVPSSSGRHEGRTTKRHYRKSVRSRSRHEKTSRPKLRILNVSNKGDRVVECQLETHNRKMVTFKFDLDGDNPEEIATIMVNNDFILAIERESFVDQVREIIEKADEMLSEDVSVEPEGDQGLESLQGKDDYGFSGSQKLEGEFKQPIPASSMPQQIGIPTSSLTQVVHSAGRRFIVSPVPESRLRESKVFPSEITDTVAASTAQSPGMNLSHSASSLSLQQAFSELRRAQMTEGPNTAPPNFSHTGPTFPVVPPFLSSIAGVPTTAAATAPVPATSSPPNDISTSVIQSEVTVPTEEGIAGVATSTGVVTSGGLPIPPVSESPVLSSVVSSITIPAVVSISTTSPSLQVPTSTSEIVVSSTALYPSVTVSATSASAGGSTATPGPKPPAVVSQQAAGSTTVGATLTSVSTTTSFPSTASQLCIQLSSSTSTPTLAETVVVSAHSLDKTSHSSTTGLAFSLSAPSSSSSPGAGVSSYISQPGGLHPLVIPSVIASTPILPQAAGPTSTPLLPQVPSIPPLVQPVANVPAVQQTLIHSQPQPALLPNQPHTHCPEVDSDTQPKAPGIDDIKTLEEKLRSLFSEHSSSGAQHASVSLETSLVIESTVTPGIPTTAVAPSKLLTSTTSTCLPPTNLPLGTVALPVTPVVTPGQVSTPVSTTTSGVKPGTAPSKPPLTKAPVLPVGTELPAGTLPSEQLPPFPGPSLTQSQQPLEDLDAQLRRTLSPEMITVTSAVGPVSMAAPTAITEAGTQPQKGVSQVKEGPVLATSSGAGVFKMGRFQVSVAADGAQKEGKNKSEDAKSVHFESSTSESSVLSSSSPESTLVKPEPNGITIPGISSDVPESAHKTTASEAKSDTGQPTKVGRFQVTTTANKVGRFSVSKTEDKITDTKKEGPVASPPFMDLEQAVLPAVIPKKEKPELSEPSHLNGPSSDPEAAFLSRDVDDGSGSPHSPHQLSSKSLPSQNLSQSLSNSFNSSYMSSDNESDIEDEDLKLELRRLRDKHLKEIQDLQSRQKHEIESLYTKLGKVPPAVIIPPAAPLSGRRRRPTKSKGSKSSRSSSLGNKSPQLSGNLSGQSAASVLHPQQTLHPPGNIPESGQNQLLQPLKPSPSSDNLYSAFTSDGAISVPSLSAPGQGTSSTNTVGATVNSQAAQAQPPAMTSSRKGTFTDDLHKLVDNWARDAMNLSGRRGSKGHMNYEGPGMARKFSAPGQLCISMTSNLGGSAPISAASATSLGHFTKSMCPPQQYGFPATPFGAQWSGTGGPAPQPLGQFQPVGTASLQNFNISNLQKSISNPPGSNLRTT
UniProt O95831: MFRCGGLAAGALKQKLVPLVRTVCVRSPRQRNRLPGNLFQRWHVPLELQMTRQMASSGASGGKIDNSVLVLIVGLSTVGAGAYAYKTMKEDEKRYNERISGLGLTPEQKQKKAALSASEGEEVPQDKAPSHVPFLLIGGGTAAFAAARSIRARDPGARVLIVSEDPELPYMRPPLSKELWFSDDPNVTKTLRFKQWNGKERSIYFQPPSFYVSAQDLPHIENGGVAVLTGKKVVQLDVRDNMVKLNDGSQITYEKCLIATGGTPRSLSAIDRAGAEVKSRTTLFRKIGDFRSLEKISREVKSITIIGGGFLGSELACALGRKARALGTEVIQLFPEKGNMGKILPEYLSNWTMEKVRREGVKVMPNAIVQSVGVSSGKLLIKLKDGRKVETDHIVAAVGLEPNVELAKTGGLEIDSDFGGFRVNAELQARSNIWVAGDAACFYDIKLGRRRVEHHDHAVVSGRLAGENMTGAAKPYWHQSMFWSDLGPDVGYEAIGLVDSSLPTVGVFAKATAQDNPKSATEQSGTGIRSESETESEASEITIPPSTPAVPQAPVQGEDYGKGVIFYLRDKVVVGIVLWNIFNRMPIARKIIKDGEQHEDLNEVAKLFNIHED
UniProt P30153: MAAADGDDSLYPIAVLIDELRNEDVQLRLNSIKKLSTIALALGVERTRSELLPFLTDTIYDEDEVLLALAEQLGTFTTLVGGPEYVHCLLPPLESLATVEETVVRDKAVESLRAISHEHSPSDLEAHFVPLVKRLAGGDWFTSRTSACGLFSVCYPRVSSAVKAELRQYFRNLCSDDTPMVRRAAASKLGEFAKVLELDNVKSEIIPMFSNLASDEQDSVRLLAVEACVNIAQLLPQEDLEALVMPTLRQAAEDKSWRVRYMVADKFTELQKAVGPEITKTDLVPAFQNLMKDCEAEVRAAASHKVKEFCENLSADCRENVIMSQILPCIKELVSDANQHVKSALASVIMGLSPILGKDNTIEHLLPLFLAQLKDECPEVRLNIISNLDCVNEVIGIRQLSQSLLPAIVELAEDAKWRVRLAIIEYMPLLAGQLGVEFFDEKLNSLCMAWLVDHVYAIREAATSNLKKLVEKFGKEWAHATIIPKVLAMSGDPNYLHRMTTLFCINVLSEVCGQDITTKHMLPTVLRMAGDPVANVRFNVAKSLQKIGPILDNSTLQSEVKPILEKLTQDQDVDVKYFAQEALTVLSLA
UniProt Q9NYU2, residues 43-1555: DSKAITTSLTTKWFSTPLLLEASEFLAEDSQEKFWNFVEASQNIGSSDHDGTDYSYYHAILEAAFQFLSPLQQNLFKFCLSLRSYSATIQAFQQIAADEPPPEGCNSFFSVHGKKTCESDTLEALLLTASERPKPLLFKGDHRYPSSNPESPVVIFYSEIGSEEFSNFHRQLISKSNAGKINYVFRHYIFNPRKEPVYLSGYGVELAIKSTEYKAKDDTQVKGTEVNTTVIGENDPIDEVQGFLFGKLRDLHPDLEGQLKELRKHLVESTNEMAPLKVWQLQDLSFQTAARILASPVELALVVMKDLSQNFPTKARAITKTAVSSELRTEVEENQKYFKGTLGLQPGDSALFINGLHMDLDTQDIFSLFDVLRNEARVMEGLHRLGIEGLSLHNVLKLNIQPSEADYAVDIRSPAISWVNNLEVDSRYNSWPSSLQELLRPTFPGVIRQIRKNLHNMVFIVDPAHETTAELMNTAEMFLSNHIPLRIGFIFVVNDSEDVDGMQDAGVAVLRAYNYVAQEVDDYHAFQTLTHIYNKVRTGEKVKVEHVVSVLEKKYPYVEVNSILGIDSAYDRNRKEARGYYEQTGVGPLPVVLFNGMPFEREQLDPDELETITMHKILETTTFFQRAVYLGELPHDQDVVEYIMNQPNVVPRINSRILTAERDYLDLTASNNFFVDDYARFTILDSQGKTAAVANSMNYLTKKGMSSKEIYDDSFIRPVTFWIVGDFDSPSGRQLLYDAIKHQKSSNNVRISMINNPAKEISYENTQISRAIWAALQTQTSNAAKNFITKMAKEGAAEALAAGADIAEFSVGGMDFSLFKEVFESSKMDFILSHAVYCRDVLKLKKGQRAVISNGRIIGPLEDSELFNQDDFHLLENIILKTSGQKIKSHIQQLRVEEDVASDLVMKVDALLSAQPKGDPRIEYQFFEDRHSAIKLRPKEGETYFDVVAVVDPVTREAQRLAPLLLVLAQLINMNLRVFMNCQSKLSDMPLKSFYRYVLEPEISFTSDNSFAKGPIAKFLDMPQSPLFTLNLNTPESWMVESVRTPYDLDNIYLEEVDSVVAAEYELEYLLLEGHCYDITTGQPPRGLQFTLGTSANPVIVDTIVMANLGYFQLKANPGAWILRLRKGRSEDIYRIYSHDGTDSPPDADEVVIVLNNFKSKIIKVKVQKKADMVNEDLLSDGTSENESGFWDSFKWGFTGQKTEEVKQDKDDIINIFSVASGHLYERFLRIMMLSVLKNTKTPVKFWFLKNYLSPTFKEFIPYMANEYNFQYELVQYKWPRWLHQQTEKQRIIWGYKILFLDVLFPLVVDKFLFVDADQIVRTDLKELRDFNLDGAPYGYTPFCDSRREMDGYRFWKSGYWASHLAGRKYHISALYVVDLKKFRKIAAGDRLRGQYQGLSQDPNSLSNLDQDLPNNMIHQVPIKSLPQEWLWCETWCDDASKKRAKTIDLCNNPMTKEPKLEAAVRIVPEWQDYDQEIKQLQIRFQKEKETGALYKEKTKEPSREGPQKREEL
UniProt Q9NVI1: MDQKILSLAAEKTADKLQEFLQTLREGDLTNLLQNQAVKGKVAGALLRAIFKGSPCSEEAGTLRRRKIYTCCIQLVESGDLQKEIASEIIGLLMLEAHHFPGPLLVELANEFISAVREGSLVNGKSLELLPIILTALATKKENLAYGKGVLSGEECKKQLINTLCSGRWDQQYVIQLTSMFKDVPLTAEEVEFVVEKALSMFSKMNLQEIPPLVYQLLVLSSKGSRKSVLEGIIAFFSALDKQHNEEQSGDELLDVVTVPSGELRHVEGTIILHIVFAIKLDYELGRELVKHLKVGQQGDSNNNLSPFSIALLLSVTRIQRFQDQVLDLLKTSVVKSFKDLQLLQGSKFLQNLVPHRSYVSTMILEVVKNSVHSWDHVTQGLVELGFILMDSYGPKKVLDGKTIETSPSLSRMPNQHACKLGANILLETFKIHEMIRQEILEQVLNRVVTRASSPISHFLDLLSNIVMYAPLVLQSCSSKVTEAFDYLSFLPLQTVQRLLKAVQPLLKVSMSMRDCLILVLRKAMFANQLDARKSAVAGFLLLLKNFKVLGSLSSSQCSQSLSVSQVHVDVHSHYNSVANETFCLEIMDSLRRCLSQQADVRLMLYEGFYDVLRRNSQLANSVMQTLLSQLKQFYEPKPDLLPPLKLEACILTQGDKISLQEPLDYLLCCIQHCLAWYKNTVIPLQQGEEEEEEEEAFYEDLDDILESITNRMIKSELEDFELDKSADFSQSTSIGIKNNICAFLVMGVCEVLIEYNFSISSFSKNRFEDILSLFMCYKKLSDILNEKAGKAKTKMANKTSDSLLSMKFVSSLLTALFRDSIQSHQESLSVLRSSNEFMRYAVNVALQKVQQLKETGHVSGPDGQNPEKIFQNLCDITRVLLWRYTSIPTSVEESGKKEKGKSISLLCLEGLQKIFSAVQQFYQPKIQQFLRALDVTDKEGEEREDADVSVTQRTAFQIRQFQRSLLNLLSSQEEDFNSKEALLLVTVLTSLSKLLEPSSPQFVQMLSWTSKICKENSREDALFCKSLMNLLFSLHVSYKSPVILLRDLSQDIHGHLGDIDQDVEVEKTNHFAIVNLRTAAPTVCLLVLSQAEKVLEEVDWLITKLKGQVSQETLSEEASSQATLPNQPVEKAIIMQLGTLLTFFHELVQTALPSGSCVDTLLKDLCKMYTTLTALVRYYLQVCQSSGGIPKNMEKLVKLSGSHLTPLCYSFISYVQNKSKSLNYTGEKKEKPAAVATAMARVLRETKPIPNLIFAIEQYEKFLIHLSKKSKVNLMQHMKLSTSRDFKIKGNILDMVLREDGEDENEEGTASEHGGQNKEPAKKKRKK

In PMC7710275:

target: WNK1 (with no lysine [K] kinase 1) (human (endogenous in HEC1A)) (UniProt Q9H4A3); test: affinity purification with mass spectrometry; endogenous WNK1 immunoprecipitated from HEC1A lysate with a WNK1 antibody (rabbit IgG as negative control) on protein A/G beads; lysis buffer 50 mM Tris-HCl pH 7.5, 150 mM NaCl, 1 mM EDTA, 1% NP-40, 1% sodium deoxycholate, 0.1% SDS; gel, trypsin digest, LC/MS

Molecule	binding
CCDC88C (from UniProt Q9P219 1-2028)	binds
SEC23A (from UniProt Q15436 1-765)	binds
AIFM1 (from UniProt O95831)	binds
PPP2R1A, the alpha isoform of the scaffold subunit A of PP2A (from UniProt P30153 1-589)	binds
oxidative stress responsive kinase 1 (OXSR1/OSR1) (from UniProt O95747 1-527)	binds
KIF11 (from UniProt P52732 1-1056)	binds

The next lines start with the values.

binding	Molecule
binds	RAD50 (from UniProt Q92878 1-1312)
binds	UGGT1 (from UniProt Q9NYU2 43-1555)
binds	FANCI (from UniProt Q9NVI1 1-1328)

target: WNK1 (with no lysine [K] kinase 1) (human (endogenous in HEC1A)) (UniProt Q9H4A3); test: as above; remark: another data set of the same source

binding	Molecule
binds	HYOU1 (protein, UniProt Q9Y4L1 33-999) LAVMSVDLGSESMKVAIVKPGVPMEIVLNKESRRKTPVIVTLKENERFFGDSAASMAIKNPKATLRYFQHLLGKQADNPHVALYQARFPEHELTFDPQRQTVHFQISSQLQFSPEEVLGMVLNYSRSLAEDFAEQPIKDAVITVPVFFNQAERRAVLQAARMAGLKVLQLINDNTATALSYGVFRRKDINTTAQNIMFYDMGSGSTVCTIVTYQMVKTKEAGMQPQLQIRGVGFDRTLGGLEMELRLRERLAGLFNEQRKGQRAKDVRENPRAMAKLLREANRLKTVLSANADHMAQIEGLMDDVDFKAKVTRVEFEELCADLFERVPGPVQQALQSAEMSLDEIEQVILVGGATRVPRVQEVLLKAVGKEELGKNINADEAAAMGAVYQAAALSKAFKVKPFVVRDAVVYPILVEFTREVEEEPGIHSLKHNKRVLFSRMGPYPQRKVITFNRYSHDFNFHINYGDLGFLGPEDLRVFGSQNLTTVKLKGVGDSFKKYPDYESKGIKAHFNLDESGVLSLDRVESVFETLVEDSAEEESTLTKLGNTISSLFGGGTTPDAKENGTDTVQEEEESPAEGSKDEPGEQVELKEEAEAPVEDGSQPPPPEPKGDATPEGEKATEKENGDKSEAQKPSEKAEAGPEGVAPAPEGEKKQKPARKRRMVEEIGVELVVLDLPDLPEDKLAQSVQKLQDLTLRDLEKQEREKAANSLEAFIFETQDKLYQPEYQEVSTEEQREEISGKLSAASTWLEDEGVGATTVMLKEKLAELRKLCQGLFFRVEERKKWPERLSALDNLLNHSSMFLKGARLIPEMDQIFTEVEMTTLEKVINETWAWKNATLAEQAKLPATEKPVLLSKDIEAKMMALDREVQYLLNKAKFTKPRPRPKDKNGTRAEPPLNASASDQGEKVIPPAGQTEDAEPISEPEKVETGSEPGDTEPLELGGPGAEPEQKEQSTGQKRPLKNDEL
binds	OFD1 (protein, UniProt O75665 1-1012) MMAQSNMFTVADVLSQDELRKKLYQTFKDRGILDTLKTQLRNQLIHELMHPVLSGELQPRSISVEGSSLLIGASNSLVADHLQRCGYEYSLSVFFPESGLAKEKVFTMQDLLQLIKINPTSSLYKSLVSGSDKENQKGFLMHFLKELAEYHQAKESCNMETQTSSTFNRDSLAEKLQLIDDQFADAYPQRIKFESLEIKLNEYKREIEEQLRAEMCQKLKFFKDTEIAKIKMEAKKKYEKELTMFQNDFEKACQAKSEALVLREKSTLERIHKHQEIETKEIYAQRQLLLKDMDLLRGREAELKQRVEAFELNQKLQEEKHKSITEALRRQEQNIKSFEETYDRKLKNELLKYQLELKDDYIIRTNRLIEDERKNKEKAVHLQEELIAINSKKEELNQSVNRVKELELELESVKAQSLAITKQNHMLNEKVKEMSDYSLLKEEKLELLAQNKLLKQQLEESRNENLRLLNRLAQPAPELAVFQKELRKAEKAIVVEHEEFESCRQALHKQLQDEIEHSAQLKAQILGYKASVKSLTTQVADLKLQLKQTQTALENEVYCNPKQSVIDRSVNGLINGNVVPCNGEISGDFLNNPFKQENVLARMVASRITNYPTAWVEGSSPDSDLEFVANTKARVKELQQEAERLEKAFRSYHRRVIKNSAKSPLAAKSPPSLHLLEAFKNITSSSPERHIFGEDRVVSEQPQVGTLEERNDVVEALTGSAASRLRGGTSSRRLSSTPLPKAKRSLESEMYLEGLGRSHIASPSPCPDRMPLPSPTESRHSLSIPPVSSPPEQKVGLYRRQTELQDKSEFSDVDKLAFKDNEEFESSFESAGNMPRQLEMGGLSPAGDMSHVDAAAAAVPLSYQHPSVDQKQIEEQKEEEKIREQQVKERRQREERRQSNLQEVLERERRELEKLYQERKMIEESLKIKIKKELEMENELEMSNQEIKDKSAHSENPLEKYMKIIQQEQDQESADKSSKKMVQEGSLVDTLQSSDKVESLTGFSHEELDDSW
binds	EMC1 (protein, UniProt Q8N766 23-993) YEDQVGKFDWRQQYVGKVKFASLEFSPGSKKLVVATEKNVIAALNSRTGEILWRHVDKGTAEGAVDAMLLHGQDVITVSNGGRIMRSWETNIGGLNWEITLDSGSFQALGLVGLQESVRYIAVLKKTTLALHHLSSGHLKWVEHLPESDSIHYQMVYSYGSGVVWALGVVPFSHVNIVKFNVEDGEIVQQVRVSTPWLQHLSGACGVVDEAVLVCPDPSSRSLQTLALETEWELRQIPLQSLDLEFGSGFQPRVLPTQPNPVDASRAQFFLHLSPSHYALLQYHYGTLSLLKNFPQTALVSFATTGEKTVAAVMACRNEVQKSSSSEDGSMGSFSEKSSSKDSLACFNQTYTINLYLVETGRRLLDTTITFSLEQSGTRPERLYIQVFLKKDDSVGYRALVQTEDHLLLFLQQLAGKVVLWSREESLAEVVCLEMVDLPLTGAQAELEGEFGKKADGLLGMFLKRLSSQLILLQAWTSHLWKMFYDARKPRSQIKNEINIDTLARDEFNLQKMMVMVTASGKLFGIESSSGTILWKQYLPNVKPDSSFKLMVQRTTAHFPHPPQCTLLVKDKESGMSSLYVFNPIFGKWSQVAPPVLKRPILQSLLLPVMDQDYAKVLLLIDDEYKVTAFPATRNVLRQLHELAPSIFFYLVDAEQGRLCGYRLRKDLTTELSWELTIPPEVQRIVKVKGKRSSEHVHSQGRVMGDRSVLYKSLNPNLLAVVTESTDAHHERTFIGIFLIDGVTGRIIHSSVQKKAKGPVHIVHSENWVVYQYWNTKARRNEFTVLELYEGTEQYNATAFSSLDRPQLPQVLQQSYIFPSSISAMEATITERGITSRHLLIGLPSGAILSLPKALLDPRRPEIPTEQSREENLIPYSPDVQIHAERFINYNQTVSRMRGIYTAPSGLESTCLVVAYGLDIYQTRVYPSKQFDVLKDDYDYVLISSVLFGLVFATMITKRLAQVKLLNRAWR
binds	PPP6R3 (protein, UniProt Q5H9R7 1-873) MFWKFDLHSSSHIDTLLEREDVTLKELMDEEDVLQECKAQNRKLIEFLLKAECLEDLVSFIIEEPPQDMDEKIRYKYPNISCELLTSDVSQMNDRLGEDESLLMKLYSFLLNDSPLNPLLASFFSKVLSILISRKPEQIVDFLKKKHDFVDLIIKHIGTSAIMDLLLRLLTCIEPPQPRQDVLNWLNEEKIIQRLVEIVHPSQEEDRHSNASQSLCEIVRLSRDQMLQIQNSTEPDPLLATLEKQEIIEQLLSNIFHKEKNESAIVSAIQILLTLLETRRPTFEGHIEICPPGMSHSACSVNKSVLEAIRGRLGSFHELLLEPPKKSVMKTTWGVLDPPVGNTRLNVIRLISSLLQTNTSSINGDLMELNSIGVILNMFFKYTWNNFLHTQVEICIALILASPFENTENATITDQDSTGDNLLLKHLFQKCQLIERILEAWEMNEKKQAEGGRRHGYMGHLTRIANCIVHSTDKGPNSALVQQLIKDLPDEVRERWETFCTSSLGETNKRNTVDLVTTCHIHSSSDDEIDFKETGFSQDSSLQQAFSDYQMQQMTSNFIDQFGFNDEKFADQDDIGNVSFDRVSDINFTLNTNESGNIALFEACCKERIQQFDDGGSDEEDIWEEKHIAFTPESQRRSSSGSTDSEESTDSEEEDGAKQDLFEPSSANTEDKMEVDLSEPPNWSANFDVPMETTHGAPLDSVGSDVWSTEEPMPTKETGWASFSEFTSSLSTKDSLRSNSPVEMETSTEPMDPLTPSAAALAVQPEAAGSVAMEASSDGEEDAESTDKVTETVMNGGMKETLSLTVDAKTETAVFKSEEGKLSTSQDAACKDAEECPETAEAKCAAPRPPSSSPEQRTGQPSAPGDTSVNGPV
binds	HM13 (protein, UniProt Q8TCT9 1-377) MDSALSDPHNGSAEAGGPTNSTTRPPSTPEGIALAYGSLLLMALLPIFFGALRSVRCARGKNASDMPETITSRDAARFPIIASCTLLGLYLFFKIFSQEYINLLLSMYFFVLGILALSHTISPFMNKFFPASFPNRQYQLLFTQGSGENKEEIINYEFDTKDLVCLGLSSIVGVWYLLRKHWIANNLFGLAFSLNGVELLHLNNVSTGCILLGGLFIYDVFWVFGTNVMVTVAKSFEAPIKLVFPQDLLEKGLEANNFAMLGLGDVVIPGIFIALLLRFDISLKKNTHTYFYTSFAAYIFGLGLTIFIMHIFKHAQPALLYLVPACIGFPVLVALAKGEVTEMFSYEESNPKDPAAVTESKEGTEASASKGLEKKEK

No constants are given. Whether binding was seen depends on the method and setting. In cells and extracts the contact can be indirect. A yes stands for co-enrichment or nearness to the bait. Other partners may have been found.
